Results taken from publication PMC3084728.
These are yes or no findings as the source states them, for the method shown. Binding seen in cells or lysates may run through a third protein. Some binding calls cover weakened binding; strength is not graded here.

Protein sequences, listed by entry. Tags and fused reporters are not part of them. Lines headed by an entry give the natural chain unless they say otherwise; changes in a name come on top. Chains listed by the source or under a name are the forms on record and can include a tag or linker. Residues count along the entry.
UniProt Q14974, residues 1-462: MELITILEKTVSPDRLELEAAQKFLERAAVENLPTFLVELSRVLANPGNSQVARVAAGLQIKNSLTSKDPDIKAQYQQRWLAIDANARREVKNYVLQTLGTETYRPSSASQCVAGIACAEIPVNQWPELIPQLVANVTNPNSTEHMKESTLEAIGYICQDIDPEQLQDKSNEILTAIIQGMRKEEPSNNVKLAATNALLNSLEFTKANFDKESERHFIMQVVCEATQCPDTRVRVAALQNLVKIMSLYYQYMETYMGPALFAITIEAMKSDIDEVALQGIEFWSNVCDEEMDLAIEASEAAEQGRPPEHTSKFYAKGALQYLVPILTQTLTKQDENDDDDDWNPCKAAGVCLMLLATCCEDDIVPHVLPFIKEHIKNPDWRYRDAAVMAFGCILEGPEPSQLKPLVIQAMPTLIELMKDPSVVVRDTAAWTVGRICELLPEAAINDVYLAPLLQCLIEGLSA
UniProt O00629: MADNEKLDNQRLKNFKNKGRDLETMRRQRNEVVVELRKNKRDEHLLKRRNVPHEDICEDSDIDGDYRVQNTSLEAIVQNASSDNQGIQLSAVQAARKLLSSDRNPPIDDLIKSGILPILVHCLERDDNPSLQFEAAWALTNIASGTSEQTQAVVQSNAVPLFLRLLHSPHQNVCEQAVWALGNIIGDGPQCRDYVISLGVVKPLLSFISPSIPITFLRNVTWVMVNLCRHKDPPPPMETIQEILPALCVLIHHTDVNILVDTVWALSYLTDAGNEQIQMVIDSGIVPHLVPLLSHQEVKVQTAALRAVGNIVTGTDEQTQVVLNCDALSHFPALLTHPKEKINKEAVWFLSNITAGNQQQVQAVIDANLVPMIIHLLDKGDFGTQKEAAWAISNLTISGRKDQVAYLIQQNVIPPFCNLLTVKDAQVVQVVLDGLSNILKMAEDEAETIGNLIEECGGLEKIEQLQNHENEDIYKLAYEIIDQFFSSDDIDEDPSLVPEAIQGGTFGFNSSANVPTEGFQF
UniProt P52294: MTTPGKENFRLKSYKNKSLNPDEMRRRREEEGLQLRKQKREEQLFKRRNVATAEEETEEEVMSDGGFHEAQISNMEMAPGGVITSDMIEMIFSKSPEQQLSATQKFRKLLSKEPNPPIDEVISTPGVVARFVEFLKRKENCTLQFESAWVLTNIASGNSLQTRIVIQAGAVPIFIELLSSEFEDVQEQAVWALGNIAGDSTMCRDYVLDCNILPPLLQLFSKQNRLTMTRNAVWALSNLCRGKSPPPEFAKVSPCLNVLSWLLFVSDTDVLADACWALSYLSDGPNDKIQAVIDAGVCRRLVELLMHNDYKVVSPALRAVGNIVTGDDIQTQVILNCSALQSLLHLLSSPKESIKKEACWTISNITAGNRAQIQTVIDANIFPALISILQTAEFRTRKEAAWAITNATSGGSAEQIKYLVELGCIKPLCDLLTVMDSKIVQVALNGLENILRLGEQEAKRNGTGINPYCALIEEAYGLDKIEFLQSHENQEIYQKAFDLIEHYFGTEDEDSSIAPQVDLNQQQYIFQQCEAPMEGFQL
FLAG-tagged C-terminal truncation of KSHV LANA containing the 329 aa N-terminal domain (Q9QR71, residues 1-329): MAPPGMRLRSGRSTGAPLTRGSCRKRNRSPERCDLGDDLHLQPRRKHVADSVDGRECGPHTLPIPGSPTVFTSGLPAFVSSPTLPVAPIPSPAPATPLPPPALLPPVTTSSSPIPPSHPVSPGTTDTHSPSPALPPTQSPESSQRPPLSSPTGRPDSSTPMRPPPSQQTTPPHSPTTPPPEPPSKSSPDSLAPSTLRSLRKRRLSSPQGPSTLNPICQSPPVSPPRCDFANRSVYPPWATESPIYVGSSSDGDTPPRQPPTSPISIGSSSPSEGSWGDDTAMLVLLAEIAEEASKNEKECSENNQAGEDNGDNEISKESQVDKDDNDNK
N-terminal 51 amino acids of KSHV LANA fused to EGFP (Q9QR71, residues 1-51): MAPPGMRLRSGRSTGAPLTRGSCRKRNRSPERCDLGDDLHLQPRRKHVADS
N-terminal 24 amino acids of KSHV LANA fused to 1×EGFP (Q9QR71, residues 1-24): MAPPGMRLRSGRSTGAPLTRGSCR

Columns and labels:
[1] = target: GST-tagged deletion mutant of importin β1, importin β1Δ_((1–462)) (UniProt Q14974); experiment: pull-down; GST or GST-tagged importins immobilised on glutathione-sepharose beads (equivalent amounts), incubated with lysates of transfected Cos7 cells (1% NP40 lysis buffer: 50 mM Tris, 150 mM NaCl, 5% glycerol) for 2 hours at 4°C, washed; bound EGFP fusions detected by Western blot with …; only the target purified
[2] = target: GST-tagged importin α3 (UniProt O00629); experiment: as above
[3] = target: GST-tagged importin α5 (UniProt P52294); experiment: as above
[4] = target: GST-tagged importin α7 (UniProt O60684); experiment: as above
[5] = target: GST-tagged importin α3 (UniProt O00629); experiment: pull-down; RanQ69L-GTP competition: GST or GST-importins on glutathione-sepharose beads incubated with Cos7 lysates 2 hours at 4°C, washed, suspended in PBS, then incubated 30 minutes at room temperature with 6×His-RanQ69L-GTP (increasing amounts, up to 80 µM) or PBS; bound protein detected by Western blot with anti-EGFP or anti-FLAG; only the target purified
[6] = target: GST-tagged deletion mutant of importin β1, importin β1Δ_((1–462)) (UniProt Q14974); experiment: as above

N-terminal 51 amino acids of KSHV LANA fused to EGFP (from UniProt Q9QR71 1-51) (domain or fragment)
binding [1]: binds
binding [2]: binds
binding [3]: binds
binding [4]: binds
binding [5]: binds

FLAG-tagged C-terminal truncation of KSHV LANA containing the 329 aa N-terminal domain (from UniProt Q9QR71 1-329) (domain or fragment)
binding [6]: binds weakly
binding [5]: binds

N-terminal 24 amino acids of KSHV LANA fused to 1×EGFP (from UniProt Q9QR71 1-24) (domain or fragment)
binding [6]: binds
